No constants are given. Whether binding was seen depends on the method and setting. For part of these data: Where a sequence is shown, tags or fusion partners need not be part of it.
T1: B-RCAL (BÜHLMANN recombinant calprotectin; His6-linker-S100A9-linker-S100A8) (human)
T1 sequence: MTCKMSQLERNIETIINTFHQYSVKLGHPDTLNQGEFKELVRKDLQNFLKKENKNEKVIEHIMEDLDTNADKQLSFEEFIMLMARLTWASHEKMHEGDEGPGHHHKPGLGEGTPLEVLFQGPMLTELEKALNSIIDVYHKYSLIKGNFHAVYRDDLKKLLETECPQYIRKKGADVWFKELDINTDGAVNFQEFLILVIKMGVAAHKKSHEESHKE

T2: native calprotectin derived from granulocytes (human) (UniProt P05109+P06702)
T2 sequence 1: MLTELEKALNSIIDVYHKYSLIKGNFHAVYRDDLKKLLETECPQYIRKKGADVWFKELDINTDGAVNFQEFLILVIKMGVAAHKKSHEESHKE
T2 sequence 2: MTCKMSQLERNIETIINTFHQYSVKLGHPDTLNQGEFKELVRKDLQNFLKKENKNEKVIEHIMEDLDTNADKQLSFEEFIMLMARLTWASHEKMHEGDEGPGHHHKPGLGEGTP


Columns and labels:
[1] = target: T1, B-RCAL (BÜHLMANN recombinant calprotectin; His6-linker-S100A9-linker-S100A8) (human); experiment: fluorescence polarisation; as the FP assay but CaCl2 in the dilution buffer replaced with 1 mM EDTA; calprotectin dimer; both purified
[2] = target: T2, native calprotectin derived from granulocytes (human); experiment: as above
[3] = target: T1, B-RCAL (BÜHLMANN recombinant calprotectin; His6-linker-S100A9-linker-S100A8) (human); experiment: dynamic light scattering + other: mass photometry; B-RCAL in 20 mM HEPES, 100 mM NaCl, pH 7.5 with 10 mM EDTA, 1 h at room temperature; dimer = one B-RCAL fusion chain; both purified

binding [1]	binding [2]	binding [3]	Binder
no binding (condition: with 1 mM EDTA)	no binding (condition: with 1 mM EDTA)		RSPESVAFPMFQSHWYSG (5(6)-carboxyfluorescein on the N-terminus) [linear peptide 3]
		no binding (condition: with 10 mM EDTA)	B-RCAL (BÜHLMANN recombinant calprotectin; His6-linker-S100A9-linker-S100A8) (complex) MTCKMSQLERNIETIINTFHQYSVKLGHPDTLNQGEFKELVRKDLQNFLKKENKNEKVIEHIMEDLDTNADKQLSFEEFIMLMARLTWASHEKMHEGDEGPGHHHKPGLGEGTPLEVLFQGPMLTELEKALNSIIDVYHKYSLIKGNFHAVYRDDLKKLLETECPQYIRKKGADVWFKELDINTDGAVNFQEFLILVIKMGVAAHKKSHEESHKE

Reference: article PMC10192418, “High-affinity peptides developed against calprotectin and their application as synthetic ligands in diagnostic assays” (Nature Communications, 2023)
